The list shows a part of the results. Single values are uncertain, as repeats are few or missing.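 Imaging used 1,536-well plates; nuclei positive for cleaved PARP by antibody were divided by total DNA-stained nuclei to yield the apoptosis fraction. Doses for screening kept most cells viable, and cell lines differ markedly in resting and induced cleaved-PARP levels.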
Tests used:
Assay in all cases: cleaved PARP positive nuclei fraction relative to DMSO control; melanoma cells; higher = more apoptosis
Conditions in all cases: library dose: low library concentration; 72 h
[1] = system: 501Mel
[2] = system: A101D
[3] = system: A2058
[4] = system: A375
[5] = system: C32
[6] = system: CBRC013 (line from a melanoma biopsy)
[7] = system: CBRC014 (line from a melanoma biopsy)
[8] = system: CBRC016 (line from a melanoma biopsy)
[9] = system: CBRC017 (line from a melanoma biopsy)
[10] = system: CBRC034 (line from a melanoma biopsy)
[11] = system: COLO792
[12] = system: COLO800
[13] = system: COLO829
[14] = system: G361
[15] = system: IPC-298
[16] = system: IST-MEL1
[17] = system: LB2518-MEL
[18] = system: LOXIMVI

SMILES	cleaved PARP positive nuclei fraction [1] [%]	cleaved PARP positive nuclei fraction [2] [%]	cleaved PARP positive nuclei fraction [3] [%]	cleaved PARP positive nuclei fraction [4] [%]	cleaved PARP positive nuclei fraction [5] [%]	cleaved PARP positive nuclei fraction [6] [%]	cleaved PARP positive nuclei fraction [7] [%]	cleaved PARP positive nuclei fraction [8] [%]	cleaved PARP positive nuclei fraction [9] [%]	cleaved PARP positive nuclei fraction [10] [%]	cleaved PARP positive nuclei fraction [11] [%]	cleaved PARP positive nuclei fraction [12] [%]	cleaved PARP positive nuclei fraction [13] [%]	cleaved PARP positive nuclei fraction [14] [%]	cleaved PARP positive nuclei fraction [15] [%]	cleaved PARP positive nuclei fraction [16] [%]	cleaved PARP positive nuclei fraction [17] [%]	cleaved PARP positive nuclei fraction [18] [%]
O=C(CCCCCCC(=O)Nc1ccccc1)NO [vorinostat] + Oc1nc(-c2ccc(C(F)(F)F)cc2)nc2c1CSCC2 [XAV939] (first compound 0.08 µM, partner dose 2 µM)	38.6	233	215	42.9	60.5	264	93.4	96	133	89.1	88	411	117	80.7	92.8	92	70.2	45.6
Cc1nc(Nc2ncc(C(=O)Nc3c(C)cccc3Cl)s2)cc(N2CCN(CCO)CC2)n1 [dasatanib] + COc1cc(N2CCC(N3CCN(C)CC3)CC2)ccc1Nc1ncc(Cl)c(Nc2ccccc2S(=O)(=O)C(C)C)n1 [NVP-TAE684] (first compound 0.004 µM, partner dose 0.08 µM)	80.3	277	145	189	308	322	117	113	100	366	189	153	104	80.6	42	107	174	35.7
C[C@]1(c2nc3c(C(N)=O)cccc3[nH]2)CCCN1 [Veliparib] + COc1cc2ncnc(Nc3ccc(Oc4ccccc4)cc3)c2cc1OC [SrcI1] (first compound 1.4 µM, partner dose 2 µM)	78.4	246	198	316	71	166	88.1	50	136	77.9	72.1	71.5	85	43.8	119	83.5	41.6	4090
CC1(C)NC(=O)N(c2ccc([N+](=O)[O-])c(C(F)(F)F)c2)C1=O [nilutamide] + O=C(Nc1ccccc1)c1cc([N+](=O)[O-])ccc1Cl [GW9662] (first compound 1 µM, partner dose 2 µM)	87.7	198	258	155	123	95.3	103	137	43.2	86.6	50	133	109	177	102	163	176	64.5
C[C@@H]1CCN(C(=O)CC#N)C[C@@H]1N(C)c1ncnc2[nH]ccc12 + COC(=O)c1sccc1S(=O)(=O)Nc1ccc(Nc2ccccc2)cc1OC [GSK0660] (first compound 1 µM, partner dose 1 µM)	49.1	55.4	137	74.1	71.6	37.1	83.5	166	76.8	85.8	177	74	125	164	64.5	174	76.6	29.5
NC(=O)Nc1cc(-c2cccc(F)c2)sc1C(=O)N[C@H]1CCCNC1 + O=C(O)C(=O)Nc1sc2c(c1C(=O)O)CCNC2 [TCS401] (first compound 0.02 µM, partner dose 1.66667 µM)	92.3	114	109	416	179	89.2	116	128	62.5	200	112	137	113	68.4	154	76.5	72.9	90.2
NC(=O)Nc1cc(-c2cccc(F)c2)sc1C(=O)N[C@H]1CCCNC1 + COc1cc(N2CCC(N3CCN(C)CC3)CC2)ccc1Nc1ncc(Cl)c(Nc2ccccc2S(=O)(=O)C(C)C)n1 [NVP-TAE684] (first compound 0.02 µM, partner dose 0.08 µM)	80.2	135	84.1	96.7	162	96.6	128	92.8	101	230	104	99.6	43.4	33.5	153	39.2	71.7	94.4
Cc1ccc(NC(=O)c2cccc(N(C)C)c2)cc1NC(=O)c1ccc(O)cc1 + O=C(Nc1ccccc1)c1cc([N+](=O)[O-])ccc1Cl [GW9662] (first compound 2 µM, partner dose 2 µM)	118	65.9	135	56.2	356	247	104	140	104	44.8	88.7	148	53.1	31.5	186	115	97.7	39
Cc1cc(N2CCOCC2)cc2[nH]c(-c3c(NC[C@@H](O)c4cccc(Cl)c4)cc[nH]c3=O)nc12 + O=C1NC(=O)/C(=C/c2ccc(-c3ccc(F)cc3O)o2)S1 [AS252424] (first compound 0.2 µM, partner dose 1 µM)	190	525	104	104	127	563	101	65.8	99.5	47	124	119	74.8	148	53.7	130	240	46.2

Reference: the supplement of paper PMC4604168 (melanoma cell lines)
